# Data as given in PubChem BioAssay AID504793 (Drosophila RNAi Screening Center, 2011).
# Purpose: 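Genes required for cells to halt at G2/M after double-strand DNA breaks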 (primary screen)
# System: Drosophila S2R+ cells
# Reagents: long dsRNA against Drosophila genes, about 0.25 µg dsRNA per well
# Time to read-out: 4 days of dsRNA, then 4 hours of drug before read-out
# Challenge: doxorubicin 0.5 µM for 4 hours to cause double-strand breaks, in cells also given a low, harmless dose of dsRNA against nbs to sensitise the assay
# Measured: 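Mitotic index as the number of phospho-histone H3-positive cells in each well following doxorubicin, given as raw counts without normalisation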
# Direction: mitotic cells: higher = more cells in mitosis, weaker G2 arrest
# Hit rule: 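a call needs confirmation in secondary tests, with other dsRNAs and a check of mitotic timing without damage, not just a high primary count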
# Calls: active = confirmed in follow-up tests; inactive = not confirmed
# The deposit covers about 23,000 reagents; this is an unselected part of those with a known target gene and a result. In the full data, 62 (0.27%) got an active call. 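Calls come from follow-up tests whose scores are not deposited, so confirmed genes may have low counts here; counts are not normalised per plate.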 The raw values are shown without normalisation. Entries without a mark were called inactive. A plus sign joins genes that one reagent is predicted to hit. No sequences are given here.
Gene,amplicon,"mitotic cells, replicate 1"
tinc,DRSC14798,7
tinc,DRSC14799,5
tinc,DRSC16308,7
tinc,DRSC16309,12
CG4658,DRSC02768,4
CG14915,DRSC02399,3
CG14915,DRSC26295,9
Slmap,DRSC03799,3
CG15207 (retired record),DRSC22791,10
CG15207 (retired record),DRSC29119,3
Wwox,DRSC03030,12
Wwox,DRSC22872,7
Wwox,DRSC25933,10
Tsp68C,DRSC09295,8
Tsp68C,DRSC28942,3
CR15821,DRSC08481,9
CR15821,DRSC24584,10
Cog7,DRSC16331,7
M1BP,DRSC16566,25 (active)
M1BP,DRSC29073,10
salr,DRSC03607,5
rod,DRSC17047,11
TwdlG,DRSC12229,1
TwdlG,DRSC27678,8
comr,DRSC04138,5
Ldsdh1,DRSC18219,7
Ldsdh1,DRSC26664,4
PGRP-LD + Cralbp + Pmi,DRSC09743,2
CG13204,DRSC06328,5
CG13204,DRSC27988,18
CG3702,DRSC00628,4
Tmlh,DRSC15563,6
Gr39a,DRSC01841,5
Gr39a,DRSC01842,8
Gr39a,DRSC27181,3
Bre1,DRSC09742,3
Secp43,DRSC00454,7
Secp43,DRSC27411,10
CG1603,DRSC06602,4
CG1603,DRSC27982,5
CG10055,DRSC12503,6
CG32832,DRSC01562,6
beta-Man,DRSC12208,10
beta-Man,DRSC12209,8
CG7695,DRSC16289,5
Dp1,DRSC07403,2
CG30287,DRSC03875,21
CG30395,DRSC03896,7
CG31463,DRSC14346,1
CG31463,DRSC26552,8
CG10359,DRSC08156,3
CG31140,DRSC14603,7
CG31140,DRSC15904,7
Peritrophin-A,DRSC20570,4
CG18577,DRSC15352,9
CG33136,DRSC05744,4
CG33136,DRSC29014,6
CG4098,DRSC10399,13
DCTN1-p150,DRSC11175,15
DCTN1-p150,DRSC23441,32
CG13737,DRSC10064,6
CG13950,DRSC00368,2
CG13950,DRSC27405,9
slif,DRSC11635,8
slif,DRSC27438,4
His4:CG33883 + His4:CG33889 + His4:CG33899 + 20 more,DRSC21268,5
His4:CG33883 + His4:CG33889 + His4:CG33899 + 20 more,DRSC30020,11
Ugt36A1 + CG15418,DRSC00432,3
Ugt36A1 + CG15418,DRSC24109,1
CG1138,DRSC12530,3
Hasp,DRSC02022,2
cmb,DRSC09790,8
cmb,DRSC25444,4
chas,DRSC19508,16
chas,DRSC19509,15
chas,DRSC29130,1
CG3124,DRSC23062,6
CG3124,DRSC26288,3
CG13679,DRSC10037,10
CG13679,DRSC22749,8
CG5521,DRSC15828,10
CG5521,DRSC30087,3
TTLL1A,DRSC20121,6
CG15221,DRSC19659,9
phtm,DRSC20237,7
phtm,DRSC26997,5
CG13609,DRSC14612,11
CG13609,DRSC22843,7
Fer2,DRSC15925,3
Naa30A,DRSC23214,3
Naa30A,DRSC30080,2
Hinfp,DRSC18484,11
Hinfp,DRSC24069,15
CG17739,DRSC06689,7
CG17739,DRSC26518,8
Epac,DRSC04969,11
Epac,DRSC04996,11
Epac,DRSC04997,5
CG44838,DRSC10371,6
CG44838,DRSC28801,4
Hil,DRSC05989,6
Hil,DRSC06395,3
CG30323,DRSC07656,2
CG13078,DRSC02182,5
kra,DRSC12320,3
Bbd,DRSC06709,8
Ir7g,DRSC18008,9
Ir7g,DRSC28922,9
Taf1,DRSC12607,8
Taf1,DRSC29806,3

Copied from the list:
Dp1 [DRSC07403], mitotic cells, replicate 1 = 2
Under “mitotic cells, replicate 1”, phtm [DRSC26997] is entered as 5
chas [DRSC19508], mitotic cells, replicate 1: 16
Under “mitotic cells, replicate 1”, salr [DRSC03607] has 5
CG13078 [DRSC02182], mitotic cells, replicate 1: 5
For “mitotic cells, replicate 1”, Taf1 [DRSC12607] reads 8
